No constants are given. Whether binding was seen depends on the method and setting. In cells and extracts the contact can be indirect. Some binding calls cover weakened binding; strength is not graded here. For part of these data: Tags and fused reporters may be left off the sequences shown.
Key:
[1] = target: HA-tagged wt zDHHC17 (mouse) (UniProt Q80TN5); assay: co-IP; HEK293T cells transfected with HA-zDHHC17 constructs and Flag-Smad7 constructs, with or without 5 ng/ml TGF-β1 for 30 min; lysis in 1% Triton X-100, 10% glycerol, 20 mM Tris-HCl pH 7.5, 150 mM NaCl; IP with an HA antibody or control IgG on Dynabeads overnight, IB with Flag or HA antibodies
[2] = target: HA-tagged zDHHC17 W130A mutant (UniProt Q80TN5); assay: as above
HA-tagged zDHHC5 (mouse) = HA-tagged zDHHC5 (mouse) (UniProt Q8VDZ4); assay: co-IP; HEK293 cells co-expressing each of the 23 HA-tagged zDHHC PATs with Flag-Smad7; pull-down with anti-HA magnetic beads, immunoblotting with a Flag antibody
HA-tagged zDHHC3 (mouse) = target: T1, HA-tagged zDHHC3 (mouse) (UniProt Q8R173); assay: as above
T1 sequence: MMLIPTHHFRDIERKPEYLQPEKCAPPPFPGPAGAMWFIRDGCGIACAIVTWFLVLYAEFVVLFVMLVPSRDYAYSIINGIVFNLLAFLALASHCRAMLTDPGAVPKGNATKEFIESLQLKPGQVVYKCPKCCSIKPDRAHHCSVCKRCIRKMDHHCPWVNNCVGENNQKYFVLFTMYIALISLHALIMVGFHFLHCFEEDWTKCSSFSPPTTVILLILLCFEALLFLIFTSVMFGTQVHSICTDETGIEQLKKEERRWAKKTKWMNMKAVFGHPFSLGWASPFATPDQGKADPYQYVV

Sequences of proteins named here, by UniProt entry; tags and fusion partners are left off. A change or cut given only in a name is not applied to a line headed by its entry.
UniProt Q80TN5: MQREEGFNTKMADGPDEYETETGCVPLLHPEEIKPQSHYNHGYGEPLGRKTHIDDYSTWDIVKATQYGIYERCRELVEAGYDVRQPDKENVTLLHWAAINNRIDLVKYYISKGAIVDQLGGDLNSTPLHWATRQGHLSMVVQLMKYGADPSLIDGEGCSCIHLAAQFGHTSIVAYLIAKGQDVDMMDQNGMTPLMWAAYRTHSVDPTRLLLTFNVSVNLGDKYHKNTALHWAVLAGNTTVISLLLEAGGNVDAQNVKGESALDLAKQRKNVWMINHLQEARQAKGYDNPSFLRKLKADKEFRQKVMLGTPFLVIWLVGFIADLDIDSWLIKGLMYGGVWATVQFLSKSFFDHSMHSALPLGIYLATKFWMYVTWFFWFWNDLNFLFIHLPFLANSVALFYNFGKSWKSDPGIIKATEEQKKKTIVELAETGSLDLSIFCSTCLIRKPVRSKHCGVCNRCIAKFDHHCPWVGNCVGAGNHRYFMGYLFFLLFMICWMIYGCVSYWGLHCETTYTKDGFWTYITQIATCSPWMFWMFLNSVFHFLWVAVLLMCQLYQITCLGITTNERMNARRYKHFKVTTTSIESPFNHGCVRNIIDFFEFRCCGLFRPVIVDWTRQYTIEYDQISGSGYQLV
UniProt Q8VDZ4: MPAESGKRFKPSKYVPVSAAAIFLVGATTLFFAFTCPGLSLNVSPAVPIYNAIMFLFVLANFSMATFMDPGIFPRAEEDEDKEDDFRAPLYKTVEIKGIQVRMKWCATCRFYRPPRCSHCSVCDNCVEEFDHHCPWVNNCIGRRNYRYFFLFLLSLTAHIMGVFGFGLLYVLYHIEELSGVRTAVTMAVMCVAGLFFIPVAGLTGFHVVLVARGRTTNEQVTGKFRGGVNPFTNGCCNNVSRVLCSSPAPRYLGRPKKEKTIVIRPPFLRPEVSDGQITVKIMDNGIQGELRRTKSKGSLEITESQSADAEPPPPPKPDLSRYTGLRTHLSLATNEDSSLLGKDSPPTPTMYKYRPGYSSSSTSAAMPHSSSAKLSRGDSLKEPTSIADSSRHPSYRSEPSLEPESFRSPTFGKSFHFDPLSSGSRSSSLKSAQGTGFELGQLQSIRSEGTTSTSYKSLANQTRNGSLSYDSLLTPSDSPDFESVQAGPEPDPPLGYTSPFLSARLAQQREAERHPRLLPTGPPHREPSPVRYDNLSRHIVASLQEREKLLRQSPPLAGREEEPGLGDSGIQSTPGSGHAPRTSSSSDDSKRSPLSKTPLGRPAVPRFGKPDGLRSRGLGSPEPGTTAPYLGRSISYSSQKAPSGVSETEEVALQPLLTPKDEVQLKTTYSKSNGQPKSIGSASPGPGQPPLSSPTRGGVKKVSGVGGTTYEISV
UniProt Q8BQQ1: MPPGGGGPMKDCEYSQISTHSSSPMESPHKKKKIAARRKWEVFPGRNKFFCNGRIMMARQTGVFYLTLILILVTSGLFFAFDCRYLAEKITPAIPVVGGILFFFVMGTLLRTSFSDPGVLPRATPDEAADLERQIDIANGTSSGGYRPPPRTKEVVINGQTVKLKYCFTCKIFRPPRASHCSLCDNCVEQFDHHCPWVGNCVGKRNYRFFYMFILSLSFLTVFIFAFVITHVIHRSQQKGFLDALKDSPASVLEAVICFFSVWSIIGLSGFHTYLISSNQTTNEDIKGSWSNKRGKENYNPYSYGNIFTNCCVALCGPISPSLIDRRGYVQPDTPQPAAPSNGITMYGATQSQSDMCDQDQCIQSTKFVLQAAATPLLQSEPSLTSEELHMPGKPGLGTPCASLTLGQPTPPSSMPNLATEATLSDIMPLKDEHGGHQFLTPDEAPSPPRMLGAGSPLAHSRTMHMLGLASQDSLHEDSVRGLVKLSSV
UniProt P59268: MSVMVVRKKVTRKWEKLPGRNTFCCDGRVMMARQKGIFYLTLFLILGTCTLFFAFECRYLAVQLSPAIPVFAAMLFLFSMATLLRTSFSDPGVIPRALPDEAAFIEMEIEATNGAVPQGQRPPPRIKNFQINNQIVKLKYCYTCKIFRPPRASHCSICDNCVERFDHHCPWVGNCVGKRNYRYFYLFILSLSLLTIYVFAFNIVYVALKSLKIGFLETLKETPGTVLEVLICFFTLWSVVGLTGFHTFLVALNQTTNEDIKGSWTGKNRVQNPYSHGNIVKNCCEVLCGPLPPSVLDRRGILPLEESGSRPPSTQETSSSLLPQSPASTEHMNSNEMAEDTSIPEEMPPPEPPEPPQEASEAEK
UniProt O15105: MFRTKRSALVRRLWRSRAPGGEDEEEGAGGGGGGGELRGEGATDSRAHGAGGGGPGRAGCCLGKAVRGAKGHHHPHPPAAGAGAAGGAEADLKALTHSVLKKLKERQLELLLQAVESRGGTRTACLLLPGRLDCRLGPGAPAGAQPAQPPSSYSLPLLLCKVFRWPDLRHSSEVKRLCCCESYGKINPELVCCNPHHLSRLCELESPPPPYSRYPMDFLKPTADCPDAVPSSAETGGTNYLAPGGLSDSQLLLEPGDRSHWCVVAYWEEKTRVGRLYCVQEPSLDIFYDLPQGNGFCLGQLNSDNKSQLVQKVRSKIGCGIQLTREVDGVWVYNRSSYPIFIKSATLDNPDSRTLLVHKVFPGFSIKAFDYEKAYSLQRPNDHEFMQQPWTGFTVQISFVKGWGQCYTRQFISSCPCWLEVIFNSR

HA-tagged zDHHC7 (mouse) = target: T2, HA-tagged zDHHC7 (mouse) (UniProt Q91WU6); assay: as above
T2 sequence: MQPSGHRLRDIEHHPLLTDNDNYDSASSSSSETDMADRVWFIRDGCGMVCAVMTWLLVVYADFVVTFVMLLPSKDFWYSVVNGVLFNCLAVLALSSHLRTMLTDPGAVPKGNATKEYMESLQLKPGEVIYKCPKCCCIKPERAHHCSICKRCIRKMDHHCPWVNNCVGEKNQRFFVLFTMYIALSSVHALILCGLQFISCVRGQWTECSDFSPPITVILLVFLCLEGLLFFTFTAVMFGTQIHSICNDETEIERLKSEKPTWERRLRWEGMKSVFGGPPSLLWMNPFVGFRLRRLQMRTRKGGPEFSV

[3] = target: T3, HA-tagged zDHHC13 (mouse) (UniProt Q9CWU2); assay: as above
T3 sequence: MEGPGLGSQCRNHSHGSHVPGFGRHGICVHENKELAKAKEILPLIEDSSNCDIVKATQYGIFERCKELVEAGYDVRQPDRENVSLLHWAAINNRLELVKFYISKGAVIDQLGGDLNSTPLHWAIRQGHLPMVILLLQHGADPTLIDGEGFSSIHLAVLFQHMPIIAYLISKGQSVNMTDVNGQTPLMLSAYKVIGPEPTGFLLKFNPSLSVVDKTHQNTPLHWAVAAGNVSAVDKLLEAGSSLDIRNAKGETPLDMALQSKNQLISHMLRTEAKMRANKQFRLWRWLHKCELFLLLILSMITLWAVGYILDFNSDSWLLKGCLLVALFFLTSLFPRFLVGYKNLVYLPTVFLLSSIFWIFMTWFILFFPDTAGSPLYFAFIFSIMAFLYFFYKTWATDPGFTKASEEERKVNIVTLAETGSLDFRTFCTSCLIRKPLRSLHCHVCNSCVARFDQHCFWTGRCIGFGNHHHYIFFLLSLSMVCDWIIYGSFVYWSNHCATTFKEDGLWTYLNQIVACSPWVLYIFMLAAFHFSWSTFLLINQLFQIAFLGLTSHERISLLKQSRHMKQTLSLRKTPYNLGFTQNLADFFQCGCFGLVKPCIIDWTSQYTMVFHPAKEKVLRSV

[4] = target: HA-tagged wt zDHHC17 (mouse) (UniProt Q80TN5); assay: as above
[5] = target: HA-tagged zDHHC14 (mouse) (UniProt Q8BQQ1); assay: as above
[6] = target: T4, HA-tagged zDHHC12 (mouse) (UniProt Q8VC90); assay: as above
T4 sequence: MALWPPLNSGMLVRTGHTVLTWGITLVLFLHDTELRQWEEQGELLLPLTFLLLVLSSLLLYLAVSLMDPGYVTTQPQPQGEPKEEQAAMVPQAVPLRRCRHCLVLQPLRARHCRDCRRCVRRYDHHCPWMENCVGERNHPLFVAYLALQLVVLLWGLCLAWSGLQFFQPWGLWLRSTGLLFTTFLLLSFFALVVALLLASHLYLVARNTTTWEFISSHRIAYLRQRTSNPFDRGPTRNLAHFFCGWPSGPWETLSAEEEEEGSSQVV

HA-tagged zDHHC9 (mouse) = HA-tagged zDHHC9 (mouse) (UniProt P59268); assay: as above

Measured: binding

FLAG-Smad7FC (fragment C) (from UniProt O15105 204-426) (domain or fragment)
binds: [1]

FLAG-Smad7FN (fragment N) (from UniProt O15105 1-261) (domain or fragment)
binds: [1]

Flag-tagged wt Smad7 (from UniProt O15105 1-426)
binds: [2] | [1] | HA-tagged zDHHC5 (mouse) | HA-tagged zDHHC3 (mouse) | HA-tagged zDHHC7 (mouse) | [3] | [4] | [5] | [6] | HA-tagged zDHHC9 (mouse)

— article PMC11277750
